Test results as given in PubChem BioAssay AID1347075 (National Center for Advancing Translational Sciences (NCATS), 2019).
Among all 400,000 compounds or so, about 5,500 (1.4%) were called active. The shares of active, inactive and inconclusive entries below differ from those in the screen. The call rests on the fitted dose curve; in most records, active means well fitted cell-killing curve with a large enough effect; inconclusive means small, poorly fitted or top-dose-only effect, or effect the other way; inactive means flat fitted curve, though single readings scatter. Potencies of inconclusive entries are doubtful fits and often do not repeat.

experiment: qHTS assay for MDR1-selective chemotherapeutics: Primary screen using the parental adenocarcinoma cell KB-3-1; conditions: KB-3-1 viability, CellTiter-Glo ATP luminescence, 72 h; activity change, negative = cytotoxic: at 46.1 µM (top of the series); further: nearly all actives have a fitted effect of over 60% in size
How it was run: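 KB-3-1 cells, DMEM (no phenol red) + 10% FBS; compound by pin transfer, 72 h, 37 °C. Readout: CellTiter-Glo luminescence after 10 min. Data normalized, curve-fitted.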
On the % scale 0 is the no-effect control and ±100 the full control effect; potency means the concentration at half of the fitted maximal effect.

Row | Compound | Potency | activity change, negative = cytotoxic
1 | Cc1cccc(NC(=O)NCCc2c[nH]c3ccccc23)c1 | inconclusive: 29.1 µM [cytotoxic, single point] | –
2 | CN(C)c1ccc(/C=N/NC(=O)c2ccccc2Cl)cc1 | inconclusive: 25.9 µM [cytotoxic, partial curve, poor fit] | –
3 | CCc1[nH]nc2c1C(c1ccsc1)C(C#N)=C(N)O2 (stereo not drawn) | inconclusive: 29.1 µM [cytotoxic, single point] | –
4 | CCOc1cc(CNC2CCCC2)cc(Cl)c1OCc1ccccc1 | inconclusive: 23.1 µM [cytotoxic, single point] | –
5 | CCN(CC)c1ccc(/C=N/N=C(N)N)c(O)c1 | inconclusive: 0.291 µM [cytotoxic, full curve, poor fit] | –
6 | O=C(CSc1cn(CCNC(=O)c2ccc3ccccc3c2)c2ccccc12)NCc1ccco1 | inconclusive: 18.4 µM [cytotoxic, partial curve] | –
7 | O=C(O)c1ccc(/C=N/Nc2ccc(C(F)(F)F)cn2)cc1 | – | inactive: -11.6%
8 | Cc1ccccc1C(=O)N1CCc2cc(-c3nc(NC(=O)Cc4ccc5c(c4)OCO5)sc3C)ccc21 | inconclusive: 3.26 µM [cytotoxic, partial curve, poor fit] | –
9 | CC1(C(=O)Nc2cccc3cccnc23)CCN1C(=O)Cc1ccc(Cl)cc1Cl (stereo not drawn) | – | inactive: 0%
10 | Cc1cc(C)cc(NC(=O)C2CCC(CNS(=O)(=O)c3ccc4c(c3)C(C)(C)C(=O)N4C)CC2)c1 (stereo not drawn) | active: 18.4 µM | –
11 | COc1ccc(CCNC(=O)c2c(C)oc3ncn(CC(C)C)c(=O)c23)cc1OC | – | inactive: 4.69%
12 | CC(=O)N1CC(C)Sc2ccc(S(=O)(=O)N3CCCCC3)cc21 (stereo not drawn) | inconclusive: 25.9 µM [cytotoxic, single point] | –
13 | NC(C(=O)O)C1ON=C(Cl)C1O (stereo not drawn) | active: 0.326 µM | –
14 | COc1ccccc1C(=O)OCc1cc(=O)n2ccsc2n1 | inconclusive: 16.4 µM [rising, partial curve, poor fit] | –
15 | c1ccc2sc(-c3ccc4c(c3)OCO4)nc2c1 | inconclusive: 29.1 µM [cytotoxic, single point] | –
16 | CCOC(=O)c1c(NC(=O)CSc2nnc(-c3c[nH]c4ccccc34)n2CCOC)sc2c1CCCCC2 | inconclusive: 29.1 µM [cytotoxic, single point] | –
17 | CCCCc1cc(=O)oc2cc(OC(C)C(=O)NCCN3CCOCC3)ccc12 (stereo not drawn) | – | inactive: -0.175%
18 | Cc1ccc(SCC(=O)NNC(=O)c2cncc(Br)c2)cc1 | – | inactive: 1.15%
19 | Cc1cc(N2C(=O)C(O)=C(C(=O)c3ccc(C)o3)C2c2cccs2)no1 (stereo not drawn) | inconclusive: 20.6 µM [cytotoxic, partial curve] | –
20 | O=c1[nH]c2cc3c(cc2cc1CN(Cc1ccco1)C(=S)NCC1CCCO1)OCCO3 (stereo not drawn) | inconclusive: 20.6 µM [cytotoxic, single point] | –
21 | NC(N)=N/N=C(\N=Nc1ccccc1)c1ccc(Cl)cc1 | inconclusive: 20.6 µM [cytotoxic, single point] | –
22 | COc1ccc(S(=O)(=O)N2CCOCC2)cc1N(C)S(=O)(=O)c1ccc(C)cc1 | – | inactive: -10.3%
23 | Cc1ccc(C)c(NC(=O)C(=O)NCCc2csc3nc(-c4ccccc4C)nn23)c1 | inconclusive: 14.6 µM [cytotoxic, single point] | –

Row | Compound | Potency | activity change, negative = cytotoxic
24 | O=C(NCc1ccc(F)cc1)c1cc(C2CCCN(S(=O)(=O)c3ccccc3)C2)on1 (stereo not drawn) | – | inactive: 0%
25 | CCN(CC)CCCNC(=O)c1cc2c(-c3ccc(Cl)cc3)nn(C)c2s1 | inconclusive: 29.1 µM [cytotoxic, single point] | –
26 | COc1ccccc1C1CC(c2ccccc2)Nc2ncnn21 (stereo not drawn) | inconclusive: 10.3 µM [cytotoxic, partial curve] | –
27 | O=C(CCCn1c(=O)c2sccc2n(Cc2ccc(F)cc2)c1=O)NCc1ccco1 | inconclusive: 29.1 µM [cytotoxic, single point] | –
28 | CCOC(=O)N1CCC2(CC1)OC(=O)C(C)=C2C(=O)NCc1cccc(OC)c1 | – | inactive: 1.05%
29 | COc1ccc(-n2c(SCC(=O)Nc3nccs3)nnc2-c2ccccc2)cc1 | inconclusive: 18.4 µM [cytotoxic, partial curve, poor fit] | –
30 | CN(C)CCNC(=O)/C(=C/c1ccc(-c2cccc(Cl)c2)o1)NC(=O)c1ccccc1 | – | inactive: 1.53%
31 | CCN1CCN(Cc2c(O)ccc3c(C)c(-c4ccccc4)c(=O)oc23)CC1 | – | inactive: 0%
32 | CCCCCc1c(C)nc(N2CCc3ccccc32)[nH]c1=O | inconclusive: 1.46 µM [cytotoxic, full curve, poor fit] | –
33 | Cc1cccc(OCC(=O)Nc2ccc3c(c2)nc(CCN2CCC(C)CC2)n3C)c1 | inconclusive: 20.6 µM [cytotoxic, single point] | –
34 | COc1ccccc1NC(=O)CSc1nc2ncccc2[nH]1 | – | inactive: -8.49%
35 | CCn1cc(CN2CCCC(C(=O)Nc3ccc(-c4nc5ccccc5[nH]4)cc3)C2)c(C)n1 (stereo not drawn) | – | inactive: -3.84%
36 | O=C(Nc1cc(Sc2nc3ccccc3s2)cc([N+](=O)[O-])c1)c1ccccc1F | inconclusive: 29.1 µM [cytotoxic, single point] | –
37 | O=C(COc1ccc(Cl)cc1Cl)N/N=C1\CCCc2ccccc21 | inconclusive: 29.1 µM [cytotoxic, partial curve, poor fit] | –
38 | COc1ccc(C2Nc3ccccc3C(=O)N2c2ccccc2)cc1COc1ccc(NC(C)=O)cc1 (stereo not drawn) | – | inactive: -29%
39 | COc1ccc(NC(=O)CN(C)C(=O)c2cccc(S(=O)(=O)N3CCN(c4ccc(F)cc4)CC3)c2)cc1 | inconclusive: 4.11 µM [cytotoxic, partial curve, poor fit] | –
40 | Cc1ccc(NC(=S)Nc2ccc(S(=O)(=O)Nc3ncccn3)cc2)c(C)c1 | – | inactive: -0.897%
41 | O=C(Nc1cccnc1)/C(N=Nc1ccc(Cl)c(C(F)(F)F)c1)=C(\O)c1ccccc1 | inconclusive: 2.91 µM [rising, full curve] | –
42 | COc1ccccc1CNC(=O)c1ccc(-c2nc(CS(=O)c3ccccc3)c(C)o2)cc1 (stereo not drawn) | inconclusive: 14.6 µM [cytotoxic, partial curve, poor fit] | –
43 | COc1cccc(C(=O)NC(=S)N2CCN(c3ccc(C(F)(F)F)cc3[N+](=O)[O-])CC2)c1 | – | inactive: -14.7%
44 | NC(=O)c1ccc(NC(=O)Cc2csc(-c3ccccc3)n2)cc1 | – | inactive: -0.165%
45 | Cc1ccc(O)c(CNc2cccc3cccnc23)c1 | – | inactive: -0.173%
46 | NCC1CCN(c2nc3ccccc3c3c2CCCC3)CC1 | active: 23.1 µM | –

An excerpt of these results, in markdown.

| Row | Compound | Potency | activity change, negative = cytotoxic |
| --- | --- | --- | --- |
| 14 | COc1ccccc1C(=O)OCc1cc(=O)n2ccsc2n1 | inconclusive: 16.4 µM [rising, partial curve, poor fit] | – |
| 46 | NCC1CCN(c2nc3ccccc3c3c2CCCC3)CC1 | active: 23.1 µM | – |

Additional records

Row | Compound | Potency | activity change, negative = cytotoxic
47 | C/C(=N\NC(=O)c1ccncc1)c1ccc(N2CCOCC2)cc1 | inconclusive: 29.1 µM [cytotoxic, single point] | –
48 | COCCCNC(=O)Cc1c(C)c2c(cc(C)c3c(C)c(C)oc32)oc1=O | inconclusive: 23.1 µM [cytotoxic, single point] | –
49 | Cc1ccc2[nH]c(CSc3nnc(COc4ccccc4C)n3C)cc(=O)c2c1 | inconclusive: 16.4 µM [cytotoxic, single point] | –
50 | O=C1CC(N(CCc2ccccc2)C(=S)Nc2ccccc2)C(=O)N1c1ccc(Br)cc1 (stereo not drawn) | inconclusive: 18.4 µM [cytotoxic, single point] | –
51 | CCCCNc1c(-c2ccc(OC)c(SC3CCCCC3)c2)nc2ccc(C)cn12 | inconclusive: 32.6 µM [cytotoxic, single point] | –
52 | Cc1cccc(NC(=O)c2ccc(N3CCCCC3)c([N+](=O)[O-])c2)n1 | inconclusive: 25.9 µM [cytotoxic, single point] | –
53 | Cc1cccc(C(=O)OC2CCOC2=O)c1C (stereo not drawn) | inconclusive: 29.1 µM [rising, single point] | –
54 | COc1ccccc1NS(=O)(=O)c1cc([N+](=O)[O-])ccc1N/N=C/c1c(C)[nH]c2ccccc12 | – | inactive: 16.1%
55 | COc1cc(NC(=O)COc2cc(C)cc3oc(=O)c(C)c(C)c23)cc(OC)c1OC | – | inconclusive: -4.87%
56 | CC(C)(C)c1ccc(C(=O)Nc2cccc([N+](=O)[O-])c2)cc1 | inconclusive: 20.6 µM [cytotoxic, partial curve, poor fit] | –
57 | CCOC(=O)c1c(NC(=O)CSc2nccc(=O)[nH]2)sc(C)c1C | – | inconclusive: 9.93%
58 | COc1ccc(-c2oc(NC(=O)CCl)c(C#N)c2-c2ccc(OC)cc2)cc1 | inconclusive: 18.4 µM [cytotoxic, single point] | –
59 | CC1CCCCN1C(=O)CSc1nc(C2CC2)nc2ccccc12 (stereo not drawn) | – | inactive: -27.3%
60 | Cc1ccc2[nH]c(=O)c(CN(CC3CCCO3)S(=O)(=O)c3c(C)ccc4nsnc34)cc2c1 (stereo not drawn) | inconclusive: 29.1 µM [cytotoxic, single point] | –
61 | O=C(CCC1N=C2c3ccccc3N=C(SCc3ccc(Cl)cc3)N2C1=O)NCc1ccco1 (stereo not drawn) | inconclusive: 29.1 µM [cytotoxic, single point] | –
62 | COCCN(CCOC)Cc1c(O)ccc2c3c(c(=O)oc12)CCC3 | inconclusive: 20.6 µM [rising, partial curve, poor fit] | –
63 | Cc1c(NC(=O)COC(=O)c2cc(-c3ccc(-c4ccccc4)cc3)nc3ccccc23)c(=O)n(-c2ccccc2)n1C | active: 9.2 µM | –
64 | Cc1cc(C)cc(NC(=S)NCCc2ccc(S(N)(=O)=O)cc2)c1 | – | inactive: 8.29%
65 | Cc1ccc(NS(=O)(=O)c2ccc(NC(=O)CSc3ccc(Cl)cc3)cc2)c(C)c1 | inconclusive: 29.1 µM [cytotoxic, single point] | –
66 | CC(C)CC1C(=O)N(Cc2cn(Cc3ccco3)nn2)CCS(=O)(=O)N1Cc1ccc(-c2ccc(F)cc2)cc1 (stereo not drawn) | inconclusive: 29.1 µM [cytotoxic, single point] | –
67 | CCCCc1ccc(NC(=O)CC(C)(C)C)cc1 | inconclusive: 2.59 µM [rising, partial curve, poor fit] | –
68 | CCCCn1c(N)c(N(CC(C)C)C(=O)C2CCCN(C(=O)c3ccc(Cl)cc3)C2)c(=O)[nH]c1=O (stereo not drawn) | – | inactive: -2.38%

Three of the compounds above, with tabs:
Row	Compound	Potency	activity change, negative = cytotoxic
47	C/C(=N\NC(=O)c1ccncc1)c1ccc(N2CCOCC2)cc1	inconclusive: 29.1 µM [cytotoxic, single point]	–
56	CC(C)(C)c1ccc(C(=O)Nc2cccc([N+](=O)[O-])c2)cc1	inconclusive: 20.6 µM [cytotoxic, partial curve, poor fit]	–
62	COCCN(CCOC)Cc1c(O)ccc2c3c(c(=O)oc12)CCC3	inconclusive: 20.6 µM [rising, partial curve, poor fit]	–
